PubChem BioAssay AID1259424 | University of Nebraska Medical Center – 2018

Purpose: 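Find knockdowns that reproduce the expression shifts seen after KSR1 loss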 (primary screen)
Cells: human HCT116 colon cancer cells
Reagent: siRNA pool against human genes, 50 nM
Read-out: 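Log2 levels of six mRNAs (branched-DNA multiplex), adjusted by two reference genes and the non-targeting median, then scored against the average KSR1 knockdown pattern as Pearson r and euclidean distance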
Reading the numbers: mean correlation with KSR1 profile: higher = expression change more like KSR1 knockdown; mean distance from KSR1 profile: higher = expression change less like KSR1 knockdown
Shown is an unselected part of about 14,000 reagents. 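Higher correlation or smaller distance means closer resemblance to KSR1 loss; control wells, including KSR1 knockdowns, recur on many plates.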 Not all columns of the deposit are shown. No sequences are given here. Not stated in the record: the time to read-out.

gene	mean correlation with KSR1 profile	mean distance from KSR1 profile
CALR (calreticulin)	-0.079	2.47
SHMT1 (serine hydroxymethyltransferase 1)	-0.471	2.81
ABAT (4-aminobutyrate aminotransferase)	-0.245	3.56
EIF4A3 (eukaryotic translation initiation factor 4A3)	-0.584	2.77
SRRM1 (serine and arginine repetitive matrix 1)	0.0471	0.898
HCRT (hypocretin neuropeptide precursor)	0.863	1.36
CLTA (clathrin light chain A)	0.28	2.36
FBXW7 (F-box and WD repeat domain containing 7)	0.113	1.8
LYRM2 (LYR motif containing 2)	0.147	1.61
CHD1 (chromodomain helicase DNA binding protein 1)	0.303	1.38
FLT3 (fms related receptor tyrosine kinase 3)	0.139	3.55
GABRA2 (gamma-aminobutyric acid type A receptor subunit alpha2)	-0.631	2.2
NME8 (NME/NM23 family member 8)	-0.00906	1.56
POLG2 (DNA polymerase gamma 2, accessory subunit)	-0.624	1.72
ROBO2 (roundabout guidance receptor 2)	0.058	1.51
SPG21 (SPG21 abhydrolase domain containing, maspardin)	-0.378	1.75
TBC1D3F (TBC1 domain family member 3F)	0.655	1.44
CIB3 (calcium and integrin binding family member 3)	0.041	2.1
CNOT12 (CCR4-NOT transcription complex subunit 12)	0.349	3.1
PHF8 (PHD finger protein 8)	-0.17	2.63
RABGGTB (Rab geranylgeranyltransferase subunit beta)	-0.268	6.45
THPO (thrombopoietin)	-0.564	3.89
PIK3CA	0.553	0.973
CNTNAP2 (contactin associated protein 2)	0.13	1.21
SMOX (spermine oxidase)	0.456	1.71
NCK2 (NCK adaptor protein 2)	-0.335	2.97
FCMR (Fc mu receptor)	0.496	1.97
MRE11 (MRE11 double strand break repair nuclease)	-0.0647	1.35
KAZN (kazrin, periplakin interacting protein)	-0.677	1.86
ARHGAP17 (Rho GTPase activating protein 17)	-0.465	2.47
DDR2 (discoidin domain receptor tyrosine kinase 2)	0.39	1.75
MAG (myelin associated glycoprotein)	0.188	3.11
TBC1D17 (TBC1 domain family member 17)	-0.264	4.58
GGT3P (gamma-glutamyltransferase 3 pseudogene)	0.432	4.51
